Results reported in PubChem BioAssay (EPA / NIEHS).
“And” between values parts separate entries of the source, which are not always exact repeats. Equal values may be shown once. Inconclusive results, whose numbers are uncertain, are shown with a selection of clear calls. For some assays here: Potencies of inconclusive entries are doubtful fits and often do not repeat. The source made the active and inactive calls. How the source made its calls, unless noted: active means hit-call score of the fitted dose curve at least 0.9, where 1 is the maximum; inconclusive means response in the unintended direction; inactive means score below 0.9.

The chains behind the UniProt entries cited, without tags or fusion partners. Where a name states a change or a piece, a line headed by the entry shows the natural chain unless it says otherwise.
UniProt P37238, whole entry, looked up: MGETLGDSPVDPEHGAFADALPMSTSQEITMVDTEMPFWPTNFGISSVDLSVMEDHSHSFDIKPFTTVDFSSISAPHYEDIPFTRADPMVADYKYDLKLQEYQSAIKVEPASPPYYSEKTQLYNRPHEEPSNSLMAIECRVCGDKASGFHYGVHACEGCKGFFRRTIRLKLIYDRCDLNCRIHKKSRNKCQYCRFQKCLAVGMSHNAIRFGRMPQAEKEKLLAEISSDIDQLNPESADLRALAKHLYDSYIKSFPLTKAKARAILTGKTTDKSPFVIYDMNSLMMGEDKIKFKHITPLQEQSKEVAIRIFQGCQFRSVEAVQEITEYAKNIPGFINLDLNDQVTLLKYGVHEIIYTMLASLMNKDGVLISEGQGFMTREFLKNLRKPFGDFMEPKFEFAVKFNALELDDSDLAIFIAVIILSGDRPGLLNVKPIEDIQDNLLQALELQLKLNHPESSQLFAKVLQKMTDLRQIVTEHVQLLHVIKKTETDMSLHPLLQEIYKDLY
UniProt P10827: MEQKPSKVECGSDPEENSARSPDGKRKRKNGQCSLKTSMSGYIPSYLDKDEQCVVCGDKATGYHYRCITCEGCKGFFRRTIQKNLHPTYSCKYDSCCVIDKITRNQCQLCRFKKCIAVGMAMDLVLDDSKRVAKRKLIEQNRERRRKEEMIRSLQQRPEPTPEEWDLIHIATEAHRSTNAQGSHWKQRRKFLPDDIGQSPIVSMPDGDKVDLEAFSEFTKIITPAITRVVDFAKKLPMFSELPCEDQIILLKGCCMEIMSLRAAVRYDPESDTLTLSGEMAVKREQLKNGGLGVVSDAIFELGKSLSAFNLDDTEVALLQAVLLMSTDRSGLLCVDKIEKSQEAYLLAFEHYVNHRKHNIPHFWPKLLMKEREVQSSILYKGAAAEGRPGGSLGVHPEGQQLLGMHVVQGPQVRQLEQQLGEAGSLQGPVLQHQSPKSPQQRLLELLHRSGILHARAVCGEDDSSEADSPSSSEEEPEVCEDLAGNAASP
UniProt P15204: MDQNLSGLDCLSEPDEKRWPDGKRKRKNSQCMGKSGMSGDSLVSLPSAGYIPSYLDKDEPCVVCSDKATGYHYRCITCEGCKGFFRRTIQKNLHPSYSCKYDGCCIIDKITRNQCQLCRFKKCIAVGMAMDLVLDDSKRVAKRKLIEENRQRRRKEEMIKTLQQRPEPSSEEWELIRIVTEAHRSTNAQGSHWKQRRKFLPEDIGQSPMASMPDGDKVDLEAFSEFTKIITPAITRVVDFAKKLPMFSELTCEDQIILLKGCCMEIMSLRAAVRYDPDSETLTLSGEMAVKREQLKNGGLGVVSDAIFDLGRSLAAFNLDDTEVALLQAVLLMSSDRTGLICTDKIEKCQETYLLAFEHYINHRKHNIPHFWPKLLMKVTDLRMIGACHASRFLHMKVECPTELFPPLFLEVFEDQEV
UniProt P10828: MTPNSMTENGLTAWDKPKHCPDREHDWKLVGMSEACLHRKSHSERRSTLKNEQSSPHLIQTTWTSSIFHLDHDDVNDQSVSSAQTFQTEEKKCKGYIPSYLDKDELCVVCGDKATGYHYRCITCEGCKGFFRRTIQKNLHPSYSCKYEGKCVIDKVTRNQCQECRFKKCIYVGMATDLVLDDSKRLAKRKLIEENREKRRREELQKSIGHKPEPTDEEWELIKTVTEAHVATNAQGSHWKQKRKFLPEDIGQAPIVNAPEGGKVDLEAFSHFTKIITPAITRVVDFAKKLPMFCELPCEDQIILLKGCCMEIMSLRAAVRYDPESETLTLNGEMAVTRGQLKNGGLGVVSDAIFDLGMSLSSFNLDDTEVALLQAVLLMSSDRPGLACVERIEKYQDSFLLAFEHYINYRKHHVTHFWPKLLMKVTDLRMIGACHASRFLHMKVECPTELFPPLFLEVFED
UniProt P37231: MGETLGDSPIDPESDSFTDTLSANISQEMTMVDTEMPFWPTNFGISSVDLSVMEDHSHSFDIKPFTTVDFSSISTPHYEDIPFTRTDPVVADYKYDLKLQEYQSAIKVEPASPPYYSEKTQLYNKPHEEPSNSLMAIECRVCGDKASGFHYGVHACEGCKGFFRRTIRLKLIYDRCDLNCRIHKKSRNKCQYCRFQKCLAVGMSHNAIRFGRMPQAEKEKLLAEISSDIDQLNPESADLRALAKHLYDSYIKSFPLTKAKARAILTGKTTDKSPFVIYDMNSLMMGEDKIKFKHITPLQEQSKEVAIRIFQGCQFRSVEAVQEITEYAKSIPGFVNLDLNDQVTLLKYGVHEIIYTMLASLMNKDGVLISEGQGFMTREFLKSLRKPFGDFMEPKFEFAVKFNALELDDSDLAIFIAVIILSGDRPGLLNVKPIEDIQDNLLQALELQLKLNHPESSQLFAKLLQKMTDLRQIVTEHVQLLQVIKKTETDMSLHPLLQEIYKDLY
UniProt P06401: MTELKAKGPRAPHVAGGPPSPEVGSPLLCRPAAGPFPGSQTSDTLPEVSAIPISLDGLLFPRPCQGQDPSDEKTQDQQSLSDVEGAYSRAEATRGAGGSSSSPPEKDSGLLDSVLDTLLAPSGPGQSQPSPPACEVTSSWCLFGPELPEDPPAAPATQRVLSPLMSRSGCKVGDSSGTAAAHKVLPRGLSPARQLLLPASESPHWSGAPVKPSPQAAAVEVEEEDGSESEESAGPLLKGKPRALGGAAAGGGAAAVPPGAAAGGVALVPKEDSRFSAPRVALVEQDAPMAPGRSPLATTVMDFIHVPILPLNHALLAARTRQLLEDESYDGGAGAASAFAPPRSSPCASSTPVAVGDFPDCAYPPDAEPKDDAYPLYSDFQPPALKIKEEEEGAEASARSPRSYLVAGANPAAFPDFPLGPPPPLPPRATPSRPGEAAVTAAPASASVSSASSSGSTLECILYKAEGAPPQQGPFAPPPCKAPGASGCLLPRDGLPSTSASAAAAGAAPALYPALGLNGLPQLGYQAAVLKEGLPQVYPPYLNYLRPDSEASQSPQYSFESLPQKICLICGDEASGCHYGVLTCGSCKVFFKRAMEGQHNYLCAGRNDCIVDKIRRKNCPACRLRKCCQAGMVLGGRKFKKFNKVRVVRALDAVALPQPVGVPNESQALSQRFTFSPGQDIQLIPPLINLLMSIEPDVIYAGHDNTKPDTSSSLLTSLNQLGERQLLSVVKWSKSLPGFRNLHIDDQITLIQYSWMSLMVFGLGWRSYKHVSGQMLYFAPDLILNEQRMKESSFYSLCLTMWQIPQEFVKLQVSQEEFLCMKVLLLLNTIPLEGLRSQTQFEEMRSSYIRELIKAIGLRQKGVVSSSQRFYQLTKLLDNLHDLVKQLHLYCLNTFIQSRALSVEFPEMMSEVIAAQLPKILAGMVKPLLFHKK

Tests used:
[1] = target: mouse Peroxisome Proliferator-activated Receptor gamma (PPARg), Pparg (gene 19016) (UniProt P37238); test: ATG_mPPARg_XSP2: Attagene TRANS-FACTORIAL Multi-Species (XSP2) HepG2 Assay for mouse Peroxisome Proliferator-activated Receptor gamma (PPARg) (AID 2283830);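 further: hits are gains in reporter mRNA above DMSO so AC50 marks activation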
Method in brief: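 Multiplexed TRANS reporter readout: after 24 h chemical exposure of transfected HepG2 cells (with 3 nM 6-alpha-fluorotestosterone, 1.5 nM norgestrel present), RNA reverse-transcribed, amplified, 6-FAM-labelled and resolved by capillary electrophoresis; mouse PPARg-Gal4 induction scored against DMSO.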

[2] = system: zebrafish Peroxisome Proliferator-activated Receptor gamma (PPARg), gene 557037; test: ATG_zfPPARg_XSP2: Attagene TRANS-FACTORIAL Multi-Species (XSP2) HepG2 Assay for zebrafish Peroxisome Proliferator-activated Receptor gamma (PPARg) (AID 2283833);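 further: actives increase reporter signal over DMSO so AC50 reflects activation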
Method in brief: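 HepG2 cells transiently transfected with GAL4-UAS reporter units expressing a zebrafish PPARg–GAL4 chimera; compound exposure 24 h. Reporter mRNA quantified by RT-PCR with fluorescent labelling and capillary electrophoresis; gain of signal fitted relative to DMSO baseline.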

[3] = system: turtle Thyroid Hormone Receptor, alpha (TRa), gene 101949057; test: ATG_trTRa_XSP2: Attagene TRANS-FACTORIAL Multi-Species (XSP1) HepG2 Assay for turtle Thyroid Hormone Receptor, alpha (TRa) (AID 2283834);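 further: hits raise reporter mRNA over the DMSO baseline so AC50 marks activators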
Method in brief: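 HepG2 cells transiently transfected with multiplexed GAL4-UAS reporter units expressing chimeric NR-Gal4 proteins were dosed for 24 hours. Reporter mRNA was quantified by RT-PCR with 6-FAM labelling and capillary electrophoresis, gain of signal scored against DMSO.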

[4] = target: human Thyroid hormone Receptor alpha (TRa), THRA (gene 7067) (UniProt P10827); test: ATG_hTRa_XSP2: Attagene TRANS-FACTORIAL Multi-Species (XSP2) HepG2 Assay for human Thyroid hormone Receptor alpha (TRa) (AID 2283838)
Method in brief: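 Gain-of-signal in reporter mRNA, relative to DMSO, after 24 h dosing of transfected HepG2; quantitation by RT-PCR fragment analysis on capillary electrophoresis.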

[5] = target: frog Thyroid hormone Receptor alpha (TRa), thra-a (gene 397942) (UniProt P15204); test: ATG_frTRa_XSP2: Attagene TRANS-FACTORIAL Multi-Species (XSP2) HepG2 Assay for frog Thyroid hormone Receptor alpha (TRa) (AID 2283839);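 further: AC50 reflects induction of frog TRa-driven reporter mRNA above DMSO baseline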
Method in brief: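 HepG2 cells transiently transfected with multiplexed GAL4-UAS reporter units expressing chimeric frog TRα-Gal4; reporter mRNA read 24 h after dosing by RT-PCR, FAM-labelled primer extension, HpaI digest and capillary electrophoresis. Gain of signal fitted versus DMSO.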

[6] = target: human Thyroid hormone Receptor beta (TRb), THRB (gene 7068) (UniProt P10828); test: ATG_hTRb_XSP2: Attagene TRANS-FACTORIAL Multi-Species (XSP2) HepG2 Assay for human Thyroid hormone Receptor beta (TRb) (AID 2283840);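 further: actives raise reporter mRNA so potency reflects agonist-like gain of signal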
Method in brief: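 HepG2 cells were transiently transfected with GAL4-UAS multiplexed reporter units expressing chimeric NR-Gal4 proteins, dosed 24 h; reporter mRNA was quantified by RT-PCR, fluorescent labeling, HpaI digestion and capillary electrophoresis, fitted for gain of signal versus DMSO.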

[7] = system: Sodium/Iodide Symporter (NIS), SLC5A5 (gene 6528); test: CPHEA_Stoker_NIS_Inhibition_RAIU: CPHEA's Radioactive Iodide Uptake (RAIU) Assay for Sodium/Iodide Symporter (NIS) Inhibition, Stoker and Laws Labs (AID 2283841)
Method in brief: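 HEK293T cells stably expressing human NIS (hNIS-HEK293T-EPA) were exposed to test chemicals at 0.001–100uM (0.5% final DMSO) with 125I at a final 329pM in HBSS/10mM HEPES pH 7.4. After 2 hours at room temperature and ice-cold washes, intracellular 125I was counted as CPM and normalized to DMSO wells.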

[8] = target: Nuclear receptor subfamily 1 group I member 2 (Mus musculus) (UniProt O54915); test: ATG_mPXR_XSP2: Attagene TRANS-FACTORIAL Multi-Species (XSP1) HepG2 Assay for mouse Pregnane X Receptor (PXR) (AID 2283831)
Method in brief: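 HepG2 cells transiently transfected with GAL4-UAS reporter units expressing chimeric NR-GAL4 proteins; reporter mRNA measured 24 h after dosing by RT-PCR with 6-FAM labelling and capillary electrophoresis, gain of signal relative to DMSO.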

[9] = TOX21_PR_LUC_Followup_Antagonist_viability: Viability Assessment in the Tox21 HEK293 Progesterone Receptor (PR) Antagonism Luciferase Follow-Up Assay (AID 2283940)
Method in brief: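 Read-out: CellTiter-Glo ATP luminescence, loss of signal taken as reduced viability. Cells: HEK293-PR-A-luc, 3,000/well, 5 h settling, then 16 h compound exposure at 37C, 0% CO2.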

[10] = target: Peroxisome proliferator-activated receptor gamma (Homo sapiens) (UniProt P37231); test: ATG_hPPARg_XSP2: Attagene TRANS-FACTORIAL Multi-Species (XSP2) HepG2 Assay for human Peroxisome Proliferator-activated Receptor gamma (PPARg) (AID 2283829);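 further: actives raise reporter mRNA above DMSO so AC50 reflects PPARg activation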
Method in brief: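 HepG2 cells transiently transfected with multiplexed GAL4-UAS reporter units for chimeric NR-Gal4 receptors, dosed 24 h. Reporter mRNA quantified by RT-PCR, 6-FAM labeling, HpaI digestion and capillary electrophoresis; gain-of-signal fitted against DMSO baseline.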

[11] = ATG_M_61_XSP2: Attagene TRANS-FACTORIAL Multi-Species (XSP2) HepG2 Assay for M61 Transcription Factor (Internal Marker) (AID 2283835; active means hit-call score of the fitted dose curve at least 0.9, where 1 is the maximum; inactive means score below 0.9;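 further: active means a rise in signal above the DMSO baseline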)
Method in brief: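 Internal background marker, read as RT-PCR/capillary-electrophoresis reporter mRNA 24 h post-dose in transiently transfected HepG2 cells. Androgen receptor stimulated with 3 nM 6-alpha-fluorotestosterone plus 1.5 nM norgestrel; gain of signal versus DMSO analysed.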

[12] = TOX21_PR_LUC_Followup_Agonist_viability: Viability Assessment in the Tox21 HEK293 Progesterone Receptor (PR) Agonism Luciferase Follow-Up Assay (AID 2283941);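 further: loss of signal means cytotoxicity so actives lower viability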
Method in brief: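 Cytotoxicity counter-screen: ATP content by CellTiter-Glo luminescence, loss of signal = reduced viability. HEK293-PR-A-luc, 3,000 cells/well, compound exposure 16 h, 37C.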

[13] = TOX21_PR_BLA_Followup_Antagonist_viability: Viability Assessment in the Tox21 HEK293 Progesterone Receptor (PR) Antagonism Beta-lactamase Follow-Up Assay (AID 2283936);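 further: cells exposed to compound with R5020 agonist for 16 h; hits lower the luminescence signal meaning cytotoxicity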
Method in brief: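 PR-UAS-bla HEK293T cells in medium with 2% charcoal-stripped FBS were treated with compounds plus R5020 for 16 hr at 37C. After the beta-lactamase read, CellTiter-Glo was added to the same wells and luminescence read after 30 min at room temperature.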

[14] = target: PGR (gene 5241) (UniProt P06401); test: TOX21_PR_LUC_Followup_Antagonist: Tox21 HEK293 Progesterone Receptor (PR) Antagonism Luciferase Follow-Up Assay (AID 2283938);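 further: curve fitted upward as signal gain over DMSO baseline despite antagonist label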
Method in brief: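 HEK293-PR-A-luc cells were precultured 5 days in medium with 10% charcoal-stripped FBS, seeded 3,000/well, then exposed to compounds in DMSO for 16 h at 37C. Luciferase was read by ONE-Glo luminescence after 30 min at room temperature.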

[15] = ATG_XTT_Cytotoxicity_XSP2: Cytotoxicity Assessment in the Attagene TRANS-FACTORIAL Multi-Species (XSP2) HepG2 Assay (AID 2283837)
Method in brief: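 XTT-based cell number read-out in human HepG2 liver cells carrying transfected reporter units, measured 24 h after chemical dosing. Activity is signal loss versus DMSO baseline.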

Compound: CCCN(CCC)c1c([N+](=O)[O-])cc(S(N)(=O)=O)cc1[N+](=O)[O-]
- outcome [1]: inactive
- outcome [2]: inactive
- AC50 [3]: inconclusive: 33.4 µM
- AC50 [4]: inconclusive: 33.4 µM
- AC50 [5]: inconclusive: 33.4 µM
- outcome [6]: inactive
- AC50 [7]: inconclusive: 0.752 nM

Compound: Oc1ccc(C(c2ccc(O)cc2)(C(F)(F)F)C(F)(F)F)cc1
- AC50 [8]: inconclusive: 48.9 µM
- outcome [2]: inactive
- AC50 [3]: inconclusive: 33.4 µM
- AC50 [4]: inconclusive: 17.3 µM and inconclusive: 1 µM
- AC50 [5]: inconclusive: 49.7 µM
- AC50 [6]: inconclusive: 51.2 µM and inconclusive: 1 µM
- AC50 [9]: inconclusive: 82.7 µM

Compound: CC(C)(c1ccccc1)c1ccc(O)cc1
- AC50 [8]: inconclusive: 1.98 µM
- AC50 [2]: inconclusive: 10 µM
- outcome [3]: inactive

Compound: COP(=S)(OC)Oc1ccc([N+](=O)[O-])c(C)c1
- AC50 [1]: active: 31.3 µM
- outcome [2]: inactive

Compound: CC1(C)CCC(Cc2ccc(Cl)cc2)C1(O)Cn1cncn1 (stereo not given)
- outcome [10]: inactive
- AC50 [5]: inconclusive: 100 µM

Compound: CCN(CC)C(=O)C(C)Oc1cccc2ccccc12 (stereo not given)
- AC50 [8]: active: 6.17 µM
- AC50 [9]: inconclusive: 46.1 µM

Compound: Clc1ccc(C(c2ccccc2Cl)C(Cl)(Cl)Cl)cc1 (stereo not given)
- outcome [11]: inactive
- AC50 [12]: active: 76 µM

Compound: COc1ccc(C(=CC(=O)N2CCOCC2)c2ccc(Cl)cc2)cc1OC
- outcome [11]: inactive

Compound: CC12CC1(C)C(=O)N(c1cc(Cl)cc(Cl)c1)C2=O (stereo not given)
- AC50 [13]: inconclusive: 46.1 µM

Compound: O=[N+]([O-])c1ccc(Oc2ccc(Cl)cc2Cl)cc1
- AC50 [13]: inconclusive: 46.1 µM

Compound: CON(C)C(=O)Nc1ccc(Cl)c(Cl)c1
- AC50 [14]: inconclusive: 1.21 µM

Compound: CC(C)(O)C(=O)Nc1ccc([N+](=O)[O-])c(C(F)(F)F)c1
- outcome [9]: inactive
- outcome [12]: inactive

Compound: CO/N=C(/C1=NOCCO1)c1ccccc1Oc1ncnc(Oc2ccccc2Cl)c1F
- AC50 [7]: active: 9920 nM

Compound: Cc1cc2c3c(c1)C(c1ccccc1)=N[C@@H](NC(=O)c1ccncc1)C(=O)N3CC2
- AC50 [7]: inconclusive: 0.2 nM

Compound: O=C(NC(=O)c1c(F)cccc1F)Nc1cc(Cl)c(OC(F)(F)C(F)C(F)(F)F)cc1Cl (stereo not given)
- outcome [7]: inactive

Compound: CCCN(CCOc1c(Cl)cc(Cl)cc1Cl)C(=O)n1ccnc1
- AC50 [3]: inconclusive: 33.4 µM
- outcome [9]: inactive

Compound: NS(=O)(=O)C(F)(F)C(F)(F)C(F)(F)C(F)(F)C(F)(F)C(F)(F)C(F)(F)C(F)(F)F
- AC50 [7]: inconclusive: 0.0597 nM

Compound: O=C1c2ccccc2C(=O)N1SC(Cl)(Cl)Cl
- AC50 [7]: active: 11600 nM

Compound: COc1ccc(C(c2ccc(OC)cc2)C(Cl)(Cl)Cl)cc1
- AC50 [5]: inconclusive: 99.5 µM
- AC50 [6]: inconclusive: 99.5 µM
- AC50 [12]: inconclusive: 5.8 µM

Compound: CC(C)(C)C(O)/C(=C\c1ccc(Cl)cc1Cl)n1cncn1 (stereo not given)
- AC50 [15]: active: 100 µM
- outcome [6]: inactive

Compound: C=CC1(C)OC(=O)N(c2cc(Cl)cc(Cl)c2)C1=O (stereo not given)
- outcome [11]: inactive
- AC50 [4]: active: 100 µM

Compound: Oc1cc(Cl)ccc1Oc1ccc(Cl)cc1Cl
- AC50 [3]: active: 4.84 µM
- AC50 [6]: active: 4.77 µM

Compound: Oc1c(Cl)c(Cl)c(Cl)c(Cl)c1Cl
- AC50 [7]: inconclusive: 0.049 nM

Compound: CCC(C)c1cc([N+](=O)[O-])cc([N+](=O)[O-])c1O (stereo not given)
- outcome [7]: inactive

Compound: CCC[CH2][Sn]([CH2]CCC)([CH2]CCC)[O]C(=O)c1ccccc1
- AC50 [7]: active: 1400 nM
